Results reported in patent US20150148235A1, “HERBICIDE-RESISTANT SUNFLOWER PLANTS WITH MULTIPLE HERBICIDE RESISTANT ALLELES OF AHASL1 AND METHODS OF USE” (NIDERA S.A., priority 2013, published 2015).
The amount applied is not stated for every result.

System: sunflower hybrids (A122T homozygous, A122T/A205V, A122T/WT, A205V checks)
Experiment: Multi-location field evaluation of the A122T trait, crop injury versus A205V checks, Example 9
Format: in vivo, Helianthus annuus
[1] = A122T homozygous hybrids (CLHA-Plus homozygous)
[2] = A122T/A205V heterozygous hybrids (CLHA-Plus/IMISUN)
[3] = A122T/WT heterozygous hybrids (CLHA-Plus/WT)

Row | SMILES | slope b of regression of crop injury (PI) on mean PI of A205V checks [1] | slope b of regression of crop injury (PI) on mean PI of A205V checks [2] | y-intercept a of regression of crop injury (PI) on mean PI of A205V checks (A122T/WT heterozygous hybrids) | slope b of regression of crop injury (PI) on mean PI of A205V checks [3]
1 | COCc1cnc(C2=NC(C)(C(C)C)C(=O)N2)c(C(=O)O)c1 (stereo not shown) [imazamox] | 0.149±0.0667 | 1.39±0.05 | 15.3±2.67 | 0.45±0.062
2 | CC(C)C1(C)N=C(c2ncccc2C(=O)O)NC1=O (stereo not shown) [imazapyr] | 0.20±0.06 | 0.26±0.07 |  | 0.55±0.18
